Data taken from the supplement of paper PMC6411743.
± gives the standard deviation of the averaged measurements. The list shows a part of the results, in another mix than the full data. The list shows a part of the results.

Protein sequences, listed by entry. Tags and fused reporters are not part of them. Lines headed by an entry give the natural chain unless they say otherwise; changes in a name come on top.
UniProt Q9UKL3: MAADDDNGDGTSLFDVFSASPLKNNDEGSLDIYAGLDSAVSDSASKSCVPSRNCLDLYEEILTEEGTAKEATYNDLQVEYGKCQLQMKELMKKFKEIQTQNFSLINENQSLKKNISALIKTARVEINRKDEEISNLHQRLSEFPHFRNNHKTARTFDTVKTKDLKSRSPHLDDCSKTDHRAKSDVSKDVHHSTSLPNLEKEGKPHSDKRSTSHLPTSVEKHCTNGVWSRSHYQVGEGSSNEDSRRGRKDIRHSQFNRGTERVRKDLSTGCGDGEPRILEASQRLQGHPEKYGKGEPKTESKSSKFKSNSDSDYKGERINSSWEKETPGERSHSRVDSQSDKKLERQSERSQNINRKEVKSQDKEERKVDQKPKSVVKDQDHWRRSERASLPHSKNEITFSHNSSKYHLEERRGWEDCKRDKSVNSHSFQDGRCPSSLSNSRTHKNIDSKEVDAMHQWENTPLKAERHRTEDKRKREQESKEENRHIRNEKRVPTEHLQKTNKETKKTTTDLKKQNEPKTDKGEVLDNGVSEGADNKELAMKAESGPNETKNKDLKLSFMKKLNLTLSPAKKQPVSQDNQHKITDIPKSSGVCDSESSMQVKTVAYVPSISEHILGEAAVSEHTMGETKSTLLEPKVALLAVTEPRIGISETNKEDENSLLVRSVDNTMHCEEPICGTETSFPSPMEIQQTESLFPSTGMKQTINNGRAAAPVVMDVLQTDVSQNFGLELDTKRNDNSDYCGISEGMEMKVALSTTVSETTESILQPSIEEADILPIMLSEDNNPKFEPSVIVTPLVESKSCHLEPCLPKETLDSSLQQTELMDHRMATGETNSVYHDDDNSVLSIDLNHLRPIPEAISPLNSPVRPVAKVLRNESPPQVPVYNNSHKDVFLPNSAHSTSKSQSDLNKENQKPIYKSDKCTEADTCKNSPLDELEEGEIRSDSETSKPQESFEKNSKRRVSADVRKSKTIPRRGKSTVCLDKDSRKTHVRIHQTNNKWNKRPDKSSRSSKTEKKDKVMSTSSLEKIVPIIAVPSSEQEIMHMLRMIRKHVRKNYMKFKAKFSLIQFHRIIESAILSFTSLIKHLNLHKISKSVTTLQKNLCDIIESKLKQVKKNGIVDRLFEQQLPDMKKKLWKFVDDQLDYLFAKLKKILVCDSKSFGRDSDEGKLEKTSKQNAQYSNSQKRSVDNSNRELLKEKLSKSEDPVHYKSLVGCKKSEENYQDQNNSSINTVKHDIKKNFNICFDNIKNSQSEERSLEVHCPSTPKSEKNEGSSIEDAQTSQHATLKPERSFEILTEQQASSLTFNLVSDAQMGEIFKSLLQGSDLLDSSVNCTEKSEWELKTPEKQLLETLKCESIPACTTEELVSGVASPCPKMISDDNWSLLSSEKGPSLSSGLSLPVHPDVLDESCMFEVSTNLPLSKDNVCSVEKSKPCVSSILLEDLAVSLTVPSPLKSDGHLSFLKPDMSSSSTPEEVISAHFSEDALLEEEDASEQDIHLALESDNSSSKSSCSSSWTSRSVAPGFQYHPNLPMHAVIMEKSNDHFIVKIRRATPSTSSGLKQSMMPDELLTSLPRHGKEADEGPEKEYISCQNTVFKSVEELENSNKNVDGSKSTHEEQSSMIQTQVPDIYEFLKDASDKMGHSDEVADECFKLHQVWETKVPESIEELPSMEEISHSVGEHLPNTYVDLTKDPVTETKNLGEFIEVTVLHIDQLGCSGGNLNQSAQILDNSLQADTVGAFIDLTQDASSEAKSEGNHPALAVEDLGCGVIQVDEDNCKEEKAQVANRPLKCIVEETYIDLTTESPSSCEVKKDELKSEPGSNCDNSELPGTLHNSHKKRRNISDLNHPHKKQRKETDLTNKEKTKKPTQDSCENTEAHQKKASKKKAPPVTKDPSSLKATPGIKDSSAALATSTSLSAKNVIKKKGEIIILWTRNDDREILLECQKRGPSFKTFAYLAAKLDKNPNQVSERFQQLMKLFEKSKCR
UniProt Q0VDG4: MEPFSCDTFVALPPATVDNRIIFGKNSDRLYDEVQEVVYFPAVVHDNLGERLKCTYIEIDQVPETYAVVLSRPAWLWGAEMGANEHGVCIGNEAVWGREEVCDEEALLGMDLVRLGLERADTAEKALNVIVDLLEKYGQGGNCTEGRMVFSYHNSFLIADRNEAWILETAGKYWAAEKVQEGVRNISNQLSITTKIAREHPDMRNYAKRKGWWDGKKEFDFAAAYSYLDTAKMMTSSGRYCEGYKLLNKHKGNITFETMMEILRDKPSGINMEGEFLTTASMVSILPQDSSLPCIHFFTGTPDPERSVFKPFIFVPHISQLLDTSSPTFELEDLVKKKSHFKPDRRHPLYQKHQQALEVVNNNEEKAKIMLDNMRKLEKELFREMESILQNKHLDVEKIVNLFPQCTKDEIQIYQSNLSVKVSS
UniProt Q9C0C7: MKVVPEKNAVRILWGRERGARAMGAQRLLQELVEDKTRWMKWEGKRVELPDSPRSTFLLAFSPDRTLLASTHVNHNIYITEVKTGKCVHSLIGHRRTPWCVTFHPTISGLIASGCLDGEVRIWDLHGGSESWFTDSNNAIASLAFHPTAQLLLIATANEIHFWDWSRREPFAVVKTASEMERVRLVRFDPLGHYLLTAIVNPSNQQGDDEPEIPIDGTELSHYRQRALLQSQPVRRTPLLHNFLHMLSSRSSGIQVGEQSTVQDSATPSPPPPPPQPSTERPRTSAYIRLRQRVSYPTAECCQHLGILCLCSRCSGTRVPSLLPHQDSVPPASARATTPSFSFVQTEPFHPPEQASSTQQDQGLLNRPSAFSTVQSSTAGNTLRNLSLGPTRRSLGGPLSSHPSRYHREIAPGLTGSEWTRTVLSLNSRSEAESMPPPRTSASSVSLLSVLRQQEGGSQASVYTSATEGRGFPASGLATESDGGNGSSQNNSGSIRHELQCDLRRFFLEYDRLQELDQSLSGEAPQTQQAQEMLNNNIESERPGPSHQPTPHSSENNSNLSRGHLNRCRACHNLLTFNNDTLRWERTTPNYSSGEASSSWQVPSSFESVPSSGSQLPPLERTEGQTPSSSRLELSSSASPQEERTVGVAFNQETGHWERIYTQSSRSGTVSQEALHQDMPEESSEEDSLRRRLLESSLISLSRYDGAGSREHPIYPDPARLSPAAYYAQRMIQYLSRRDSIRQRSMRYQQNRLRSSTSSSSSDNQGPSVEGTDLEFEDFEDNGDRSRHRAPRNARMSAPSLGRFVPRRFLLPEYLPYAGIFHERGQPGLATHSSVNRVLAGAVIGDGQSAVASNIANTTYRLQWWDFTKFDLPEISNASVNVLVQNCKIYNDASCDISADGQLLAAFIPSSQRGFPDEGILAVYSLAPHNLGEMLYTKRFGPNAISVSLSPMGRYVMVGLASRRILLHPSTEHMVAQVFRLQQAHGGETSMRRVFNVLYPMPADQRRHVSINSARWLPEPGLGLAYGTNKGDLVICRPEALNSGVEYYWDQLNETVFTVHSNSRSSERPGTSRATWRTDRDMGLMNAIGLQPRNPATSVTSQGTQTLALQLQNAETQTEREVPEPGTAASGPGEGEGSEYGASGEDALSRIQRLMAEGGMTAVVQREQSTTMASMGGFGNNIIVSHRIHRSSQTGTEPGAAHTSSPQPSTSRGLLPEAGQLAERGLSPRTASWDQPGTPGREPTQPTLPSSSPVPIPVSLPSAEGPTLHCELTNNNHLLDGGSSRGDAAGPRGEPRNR
UniProt Q9Y4G8: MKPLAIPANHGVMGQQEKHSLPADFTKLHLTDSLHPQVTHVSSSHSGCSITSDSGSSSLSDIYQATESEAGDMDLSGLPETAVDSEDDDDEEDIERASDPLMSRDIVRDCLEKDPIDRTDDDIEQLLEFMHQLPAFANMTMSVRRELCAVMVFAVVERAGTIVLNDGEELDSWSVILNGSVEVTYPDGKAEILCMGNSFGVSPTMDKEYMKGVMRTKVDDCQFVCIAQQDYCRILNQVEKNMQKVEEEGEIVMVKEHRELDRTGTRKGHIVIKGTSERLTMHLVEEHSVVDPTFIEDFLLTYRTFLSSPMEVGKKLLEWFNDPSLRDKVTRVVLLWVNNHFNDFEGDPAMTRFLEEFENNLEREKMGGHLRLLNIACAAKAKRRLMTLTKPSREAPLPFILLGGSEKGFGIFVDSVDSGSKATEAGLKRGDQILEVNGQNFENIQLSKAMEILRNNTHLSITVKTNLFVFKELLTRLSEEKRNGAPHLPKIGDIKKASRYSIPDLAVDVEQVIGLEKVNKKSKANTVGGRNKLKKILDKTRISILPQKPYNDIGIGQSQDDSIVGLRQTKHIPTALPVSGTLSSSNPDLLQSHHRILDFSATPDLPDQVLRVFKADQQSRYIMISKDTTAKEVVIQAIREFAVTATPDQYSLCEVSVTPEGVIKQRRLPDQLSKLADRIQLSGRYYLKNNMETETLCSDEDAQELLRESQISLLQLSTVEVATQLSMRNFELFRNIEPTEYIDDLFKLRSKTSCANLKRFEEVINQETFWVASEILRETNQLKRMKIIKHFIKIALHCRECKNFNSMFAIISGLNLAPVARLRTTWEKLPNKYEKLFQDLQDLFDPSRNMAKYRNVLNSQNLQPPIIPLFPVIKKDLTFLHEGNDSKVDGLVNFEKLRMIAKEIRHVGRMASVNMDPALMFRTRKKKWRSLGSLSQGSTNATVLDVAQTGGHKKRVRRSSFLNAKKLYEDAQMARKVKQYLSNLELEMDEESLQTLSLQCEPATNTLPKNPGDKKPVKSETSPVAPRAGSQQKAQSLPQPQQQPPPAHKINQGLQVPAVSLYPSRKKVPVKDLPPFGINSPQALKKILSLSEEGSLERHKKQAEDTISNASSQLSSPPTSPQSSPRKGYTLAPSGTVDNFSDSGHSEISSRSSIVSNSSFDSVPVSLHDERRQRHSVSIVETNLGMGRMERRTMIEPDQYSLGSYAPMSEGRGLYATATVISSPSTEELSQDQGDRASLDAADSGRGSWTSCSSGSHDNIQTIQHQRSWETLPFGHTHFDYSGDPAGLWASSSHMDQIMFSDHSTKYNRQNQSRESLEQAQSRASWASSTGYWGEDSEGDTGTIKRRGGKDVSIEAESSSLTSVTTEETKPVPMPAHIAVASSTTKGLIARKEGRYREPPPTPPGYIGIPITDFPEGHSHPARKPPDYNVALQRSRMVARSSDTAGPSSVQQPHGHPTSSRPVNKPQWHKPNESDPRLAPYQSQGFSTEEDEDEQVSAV
UniProt Q9Y6X9: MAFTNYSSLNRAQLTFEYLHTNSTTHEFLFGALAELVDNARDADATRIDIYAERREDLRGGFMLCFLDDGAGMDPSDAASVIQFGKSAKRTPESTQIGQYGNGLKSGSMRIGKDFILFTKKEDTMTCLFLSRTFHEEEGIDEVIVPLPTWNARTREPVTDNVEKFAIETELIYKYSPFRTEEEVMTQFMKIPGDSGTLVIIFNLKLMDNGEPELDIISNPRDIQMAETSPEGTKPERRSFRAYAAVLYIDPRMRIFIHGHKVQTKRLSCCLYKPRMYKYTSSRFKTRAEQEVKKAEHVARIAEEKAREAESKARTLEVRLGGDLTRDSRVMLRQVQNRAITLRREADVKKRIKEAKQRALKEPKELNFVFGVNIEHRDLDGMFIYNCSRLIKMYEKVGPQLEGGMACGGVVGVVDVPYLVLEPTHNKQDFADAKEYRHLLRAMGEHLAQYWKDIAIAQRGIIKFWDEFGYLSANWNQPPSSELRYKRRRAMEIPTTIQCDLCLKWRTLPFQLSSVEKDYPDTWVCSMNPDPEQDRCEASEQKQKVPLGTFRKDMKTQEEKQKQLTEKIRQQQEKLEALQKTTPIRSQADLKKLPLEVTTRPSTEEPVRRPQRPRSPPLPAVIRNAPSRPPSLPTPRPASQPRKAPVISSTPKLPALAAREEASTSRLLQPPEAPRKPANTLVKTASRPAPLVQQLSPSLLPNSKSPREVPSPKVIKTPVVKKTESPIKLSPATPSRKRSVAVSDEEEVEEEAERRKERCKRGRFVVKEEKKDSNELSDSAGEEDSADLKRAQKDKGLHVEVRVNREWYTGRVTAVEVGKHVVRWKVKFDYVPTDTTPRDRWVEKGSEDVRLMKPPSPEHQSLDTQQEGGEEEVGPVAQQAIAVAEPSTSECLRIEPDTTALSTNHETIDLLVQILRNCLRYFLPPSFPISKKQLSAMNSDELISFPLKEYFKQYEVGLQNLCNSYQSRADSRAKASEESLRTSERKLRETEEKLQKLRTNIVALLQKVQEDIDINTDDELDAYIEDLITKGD

How the values were obtained:
[1] = compound: Nc1ncnc2c1ncn2[C@@H]1O[C@H](COP(=O)(O)OP(=O)(O)NP(=O)(O)O)[C@@H](O)[C@H]1O [adenylyl imidodiphosphate]; assay: NP40-soluble protein abundance relative to vehicle (solubility fold change) (ratio); higher = more soluble protein in presence of AMP-PNP
How it was run: (§1)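 Values are fold changes against the detergent-processed vehicle, based on vsn-normalised intensities. Jurkat crude lysate was treated at eight concentrations from 0.1 to 10 mM (10 min at room temperature, then 3 min at 37 °C), solubilised with 0.8% NP40 and benzonase, ultracentrifuged and analysed by TMT-labelled LC-MS/MS over three independent experiments.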

guanosine triphosphate = compound: Nc1nc2c(ncn2[C@@H]2O[C@H](COP(=O)(O)OP(=O)(O)OP(=O)(O)O)[C@@H](O)[C@H]2O)c(=O)[nH]1 [guanosine triphosphate]; assay: NP40-soluble protein abundance relative to vehicle (solubility fold change) (ratio); higher = more soluble protein in presence of GTP
How it was run: as §1

Target	NP40-soluble protein abundance ([1]; concentration: 1mM)	NP40-soluble protein abundance ([1]; concentration: 2mM)	NP40-soluble protein abundance ([1]; concentration: 4mM)	NP40-soluble protein abundance ([1]; concentration: 6mM)	NP40-soluble protein abundance ([1]; concentration: 8mM)	NP40-soluble protein abundance ([1]; concentration: 10mM)	NP40-soluble protein abundance (guanosine triphosphate; concentration: 0.1mM)	NP40-soluble protein abundance (guanosine triphosphate; concentration: 0.5mM)	NP40-soluble protein abundance (guanosine triphosphate; concentration: 1mM)	NP40-soluble protein abundance (guanosine triphosphate; concentration: 2mM)	NP40-soluble protein abundance (guanosine triphosphate; concentration: 4mM)	NP40-soluble protein abundance (guanosine triphosphate; concentration: 6mM)	NP40-soluble protein abundance (guanosine triphosphate; concentration: 8mM)	NP40-soluble protein abundance (guanosine triphosphate; concentration: 10mM)
A0A024R4E5|Q00341 (UniProt Q00341)	0.9949 ± 0.0089	0.973 ± 0.031	1.01 ± 0.013	1.006 ± 0.0057	1.01 ± 0.022	1.03 ± 0.014								
A0A087WUB9|Q8WYA6 (UniProt Q8WYA6)	1.01 ± 0.014	1.01 ± 0.015	1.03 ± 0.035	1.07 ± 0.022	1.1 ± 0.048	1.15 ± 0.062								
A0A087WTW5|Q9UKL3 (UniProt Q9UKL3)	1.02 ± 0.034	1.05 ± 0.015	1.03 ± 0.056	1.03 ± 0.047	1.023 ± 0.0063	1.01 ± 0.024								
A0A087WUL0|Q3LXA3 (UniProt Q3LXA3)	1.02 ± 0.024	1.05 ± 0.05	1.03 ± 0.054	0.997 ± 0.01	0.963 ± 0.027	1.02 ± 0.036								
A0A087WW14|Q0VDG4 and related entries (UniProt Q0VDG4)	0.958 ± 0.022	0.943 ± 0.026	0.972 ± 0.023	0.966 ± 0.021	0.978 ± 0.045	0.963 ± 0.026								
RCL1 (UniProt Q9Y2P8)							1.03 ± 0.037	1.07 ± 0.063	0.993 ± 0.032	1.02 ± 0.031	1.02 ± 0.053	1.02 ± 0.012	0.97 ± 0.053	1.01 ± 0.033
A0A075B6T1|Q9C0C7 and related entries (UniProt Q9C0C7)	0.983 ± 0.026	0.976 ± 0.015	0.977 ± 0.014	0.954 ± 0.025	0.983 ± 0.028	0.962 ± 0.025								
A0A087WUD1|Q6DD87 (UniProt Q6DD87)	0.9866 ± 0.007	0.986 ± 0.029	0.977 ± 0.022	0.985 ± 0.046	0.983 ± 0.027	0.994 ± 0.048								
RAPGEF2 (UniProt Q9Y4G8)							1.04 ± 0.1	1.05 ± 0.13	1.01 ± 0.066	0.977 ± 0.076	0.887 ± 0.089	0.932 ± 0.075	0.959 ± 0.19	0.902 ± 0.064
SPG7 (UniProt Q9UQ90)							1.06 ± 0.042	1.04 ± 0.077	1.03 ± 0.096	1.02 ± 0.068	1.03 ± 0.11	1.04 ± 0.099	0.972 ± 0.065	0.997 ± 0.027
OAS3 (UniProt Q9Y6K5)							1.08 ± 0.08	1.08 ± 0.056	1 ± 0.035	1 ± 0.061	0.962 ± 0.085	0.975 ± 0.053	0.996 ± 0.074	0.933 ± 0.1
UniProt Q9Y6X9 and related entries							0.982 ± 0.076	0.972 ± 0.1	0.982 ± 0.083	0.989 ± 0.092	0.984 ± 0.046	0.944 ± 0.038	1.05 ± 0.042	1.02 ± 0.042
UniProt Q9Y5V3 and related entries							0.951 ± 0.025	1.01 ± 0.025	1.03 ± 0.075	1.11 ± 0.057	1.11 ± 0.14	1.12 ± 0.097	1.12 ± 0.17	1.12 ± 0.13
MRPS18B (UniProt Q9Y676)							0.939 ± 0.12	0.991 ± 0.11	1.18 ± 0.3	1.28 ± 0.32	1.29 ± 0.31	1.27 ± 0.3	1.22 ± 0.29	1.29 ± 0.42
